Laboratory results as given in patent publication US20210403415A1, “COMPOUNDS AND METHODS TO ATTENUATE TUMOR PROGRESSION AND METASTASIS” (THE TRUSTEES OF INDIANA UNIVERSITY, priority 2018, published 2021).
Some of these results come from one statement about several compounds together.

The chains behind the UniProt entries cited, without tags or fusion partners. Residues count along the entry.
UniProt Q15561, 217-434: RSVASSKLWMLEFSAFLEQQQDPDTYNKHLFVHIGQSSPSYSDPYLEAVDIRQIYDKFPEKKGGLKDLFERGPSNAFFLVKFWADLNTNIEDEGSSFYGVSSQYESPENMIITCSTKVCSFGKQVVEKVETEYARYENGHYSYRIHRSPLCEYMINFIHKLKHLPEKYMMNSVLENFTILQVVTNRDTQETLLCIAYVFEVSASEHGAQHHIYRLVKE

Molecular target: TEAD4.Yap1 interaction (Homo sapiens, UniProt Q15561)
Assay: Fluorescence polarization, GST-TEAD4 with FAM-Yap60-99 peptide
Format: binding
Parameters: TEAD4 (217-434), TEAD4 (217-434) Cys367Ser mutant and Yap1 (Full-length) were expressed as GST-fusion proteins; made in house; host or cells: E. coli BL-21 (DE3), pGEX-6P-1
Conditions: 24 h incubation at 4° C.
Protocol: GST-TEAD4, GST-TEAD4 Cys367Ser mutant or HIS-TEAD2 interaction with Yap1 was investigated using a fluorescently-labeled peptide (FAM-Yap60-99), consisting of FAM-labeled TEAD-binding peptide fragment of Yap1 (FAM-[…] TVPMCLRKLPASFCKPP), which has a disulfide bridge (American Peptide, Sunnyvale, Calif.). Addition of FAM-Yap60-99 to the TEAD was followed by measurement of changes in polarization. […] Finally, 5 μL of 160 nM FAM-Yap60-99 peptide was added, the plate centrifuged, and the polarization was measured on an Envision Multilabel Plate Reader (PerkinElmer, Waltham, Mass.) using a filter set with excitation and emission wavelengths of 485 and 535 nm, respectively. Percent inhibition was calculated as relative to a minimum inhibition control, which is without compound, and a maximum inhibition control, which is without a TEAD.
For the determination of the inhibition efficiency kinact/K1, the protein compound incubation time was varied between […], prior to the addition of the FAM-Yap60-99 peptide and fluorescence polarization measurements. The progressive decrease in TEAD activities were plotted against time for all 10 concentrations ([…]) of the compounds and the observed rate of inhibition (kobs) was calculated by fitting a simple exponential function. […]

SMILES	inhibition / maximum inhibition of TEAD4.Yap1 interaction
O=C(CCl)c1ccccc1Nc1cccc(-c2cccs2)c1 [Compound 8, 2-chloro-1-(2-((3-(thiophen-2-yl)phenyl)amino)phenyl)ethanone]	less than 20%
O=C(CCl)c1ccccc1Nc1ccc(-c2cccs2)cc1 [Compound 7, 2-chloro-1-(2-((4-(thiophen-2-yl)phenyl)amino)phenyl)ethanone]	less than 20%
